From the supplement of paper PMC10849652
Some of the results follow.

The chains behind the UniProt entries cited, without tags or fusion partners. Where a name states a change or a piece, a line headed by the entry shows the natural chain unless it says otherwise.
UniProt Q8TAA5: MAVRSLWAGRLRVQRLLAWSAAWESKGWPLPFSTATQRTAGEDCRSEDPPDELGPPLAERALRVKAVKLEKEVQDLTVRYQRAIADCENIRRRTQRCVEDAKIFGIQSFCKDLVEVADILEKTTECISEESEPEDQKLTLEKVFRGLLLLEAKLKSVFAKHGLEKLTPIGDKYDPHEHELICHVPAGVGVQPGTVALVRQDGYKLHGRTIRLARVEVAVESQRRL
UniProt Q9BXW7: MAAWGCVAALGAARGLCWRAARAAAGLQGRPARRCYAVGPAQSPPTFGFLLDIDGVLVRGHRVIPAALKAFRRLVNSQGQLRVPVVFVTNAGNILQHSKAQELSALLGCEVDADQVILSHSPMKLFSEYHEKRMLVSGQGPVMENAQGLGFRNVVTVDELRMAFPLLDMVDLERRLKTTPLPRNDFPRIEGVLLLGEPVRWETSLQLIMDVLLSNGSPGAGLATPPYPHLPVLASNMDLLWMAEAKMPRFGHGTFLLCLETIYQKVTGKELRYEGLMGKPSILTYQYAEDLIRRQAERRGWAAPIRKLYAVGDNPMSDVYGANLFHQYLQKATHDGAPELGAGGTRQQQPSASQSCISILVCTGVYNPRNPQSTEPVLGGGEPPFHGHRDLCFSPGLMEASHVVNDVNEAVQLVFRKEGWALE
UniProt P52655, whole entry, looked up: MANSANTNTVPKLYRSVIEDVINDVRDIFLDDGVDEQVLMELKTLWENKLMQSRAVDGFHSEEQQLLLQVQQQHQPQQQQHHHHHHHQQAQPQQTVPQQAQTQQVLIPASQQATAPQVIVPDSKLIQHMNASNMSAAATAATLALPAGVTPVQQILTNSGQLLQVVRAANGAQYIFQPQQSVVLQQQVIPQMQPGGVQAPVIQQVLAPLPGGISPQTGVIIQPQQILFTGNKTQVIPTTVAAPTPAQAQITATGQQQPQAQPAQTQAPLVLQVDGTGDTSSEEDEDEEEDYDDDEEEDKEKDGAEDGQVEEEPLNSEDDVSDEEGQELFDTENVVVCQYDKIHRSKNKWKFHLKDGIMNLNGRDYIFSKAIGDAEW
UniProt Q8IYD1, whole entry, looked up: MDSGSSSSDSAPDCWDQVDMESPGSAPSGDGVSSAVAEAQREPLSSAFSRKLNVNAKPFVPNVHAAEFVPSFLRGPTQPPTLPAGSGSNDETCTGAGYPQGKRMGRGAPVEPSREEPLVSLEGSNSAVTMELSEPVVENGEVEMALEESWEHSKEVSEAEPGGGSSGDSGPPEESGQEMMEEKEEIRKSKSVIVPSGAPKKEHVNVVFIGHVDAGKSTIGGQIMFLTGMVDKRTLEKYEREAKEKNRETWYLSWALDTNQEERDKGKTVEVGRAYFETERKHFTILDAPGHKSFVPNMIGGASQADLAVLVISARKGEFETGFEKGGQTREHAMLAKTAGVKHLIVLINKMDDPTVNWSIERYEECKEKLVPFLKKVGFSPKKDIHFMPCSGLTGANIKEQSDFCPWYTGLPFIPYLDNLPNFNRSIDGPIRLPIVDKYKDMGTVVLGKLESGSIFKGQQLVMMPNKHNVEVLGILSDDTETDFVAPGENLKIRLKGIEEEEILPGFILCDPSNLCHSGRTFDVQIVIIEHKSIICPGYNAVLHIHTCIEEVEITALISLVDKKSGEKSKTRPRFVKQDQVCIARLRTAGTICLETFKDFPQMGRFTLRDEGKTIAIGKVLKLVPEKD
UniProt Q4ZG55: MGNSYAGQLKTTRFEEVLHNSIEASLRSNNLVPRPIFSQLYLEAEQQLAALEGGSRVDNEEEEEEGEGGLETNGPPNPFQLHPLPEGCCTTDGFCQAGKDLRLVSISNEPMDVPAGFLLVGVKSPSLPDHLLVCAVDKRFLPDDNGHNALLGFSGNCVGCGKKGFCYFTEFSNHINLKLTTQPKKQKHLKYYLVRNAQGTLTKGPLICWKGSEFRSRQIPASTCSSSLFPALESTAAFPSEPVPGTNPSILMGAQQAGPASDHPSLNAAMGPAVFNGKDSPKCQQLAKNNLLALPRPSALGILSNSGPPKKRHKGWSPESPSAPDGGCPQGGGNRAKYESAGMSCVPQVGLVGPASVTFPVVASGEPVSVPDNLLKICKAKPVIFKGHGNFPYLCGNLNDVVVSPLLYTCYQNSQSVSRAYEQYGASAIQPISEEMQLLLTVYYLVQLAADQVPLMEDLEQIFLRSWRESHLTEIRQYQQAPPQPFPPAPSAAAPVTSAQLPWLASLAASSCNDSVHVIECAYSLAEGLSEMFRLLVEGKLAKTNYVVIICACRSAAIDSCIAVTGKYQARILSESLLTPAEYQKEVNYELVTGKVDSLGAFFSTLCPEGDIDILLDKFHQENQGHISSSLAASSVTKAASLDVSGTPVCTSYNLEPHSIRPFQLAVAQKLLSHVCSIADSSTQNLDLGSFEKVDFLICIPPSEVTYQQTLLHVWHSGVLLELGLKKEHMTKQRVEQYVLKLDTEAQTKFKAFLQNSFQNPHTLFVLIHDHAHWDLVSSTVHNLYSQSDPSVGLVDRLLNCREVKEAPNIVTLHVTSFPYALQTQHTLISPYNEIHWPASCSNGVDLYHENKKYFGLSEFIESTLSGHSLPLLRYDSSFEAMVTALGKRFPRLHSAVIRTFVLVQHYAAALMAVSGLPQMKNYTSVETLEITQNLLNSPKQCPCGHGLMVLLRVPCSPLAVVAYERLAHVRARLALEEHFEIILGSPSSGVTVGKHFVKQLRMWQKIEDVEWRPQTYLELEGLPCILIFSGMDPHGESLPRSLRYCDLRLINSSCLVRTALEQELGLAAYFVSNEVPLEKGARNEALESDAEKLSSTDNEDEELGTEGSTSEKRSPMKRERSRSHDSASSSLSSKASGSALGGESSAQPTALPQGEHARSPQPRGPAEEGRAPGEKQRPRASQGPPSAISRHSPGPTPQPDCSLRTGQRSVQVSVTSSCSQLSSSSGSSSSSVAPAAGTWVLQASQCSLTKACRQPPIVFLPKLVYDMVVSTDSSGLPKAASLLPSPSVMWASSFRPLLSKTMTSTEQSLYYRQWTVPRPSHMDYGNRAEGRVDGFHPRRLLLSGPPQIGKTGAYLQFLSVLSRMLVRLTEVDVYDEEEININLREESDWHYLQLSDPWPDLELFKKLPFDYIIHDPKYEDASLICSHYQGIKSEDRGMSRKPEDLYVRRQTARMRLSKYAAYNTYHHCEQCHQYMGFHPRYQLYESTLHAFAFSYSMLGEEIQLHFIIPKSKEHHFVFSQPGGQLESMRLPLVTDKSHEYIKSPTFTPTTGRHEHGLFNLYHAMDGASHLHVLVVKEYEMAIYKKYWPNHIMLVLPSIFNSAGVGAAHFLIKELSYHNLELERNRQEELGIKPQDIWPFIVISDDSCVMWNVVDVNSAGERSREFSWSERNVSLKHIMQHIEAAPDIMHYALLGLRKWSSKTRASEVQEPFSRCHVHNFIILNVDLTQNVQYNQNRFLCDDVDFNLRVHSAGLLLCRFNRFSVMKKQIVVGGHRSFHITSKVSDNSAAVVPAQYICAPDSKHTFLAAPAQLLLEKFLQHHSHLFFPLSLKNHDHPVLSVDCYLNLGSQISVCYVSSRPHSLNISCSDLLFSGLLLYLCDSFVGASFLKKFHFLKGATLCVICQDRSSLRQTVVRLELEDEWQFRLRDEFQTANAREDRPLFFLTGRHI
UniProt P69891: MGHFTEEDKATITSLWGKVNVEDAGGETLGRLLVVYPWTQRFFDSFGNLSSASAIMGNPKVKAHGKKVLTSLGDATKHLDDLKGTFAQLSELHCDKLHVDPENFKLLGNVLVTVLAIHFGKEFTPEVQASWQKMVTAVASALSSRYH
UniProt P13807: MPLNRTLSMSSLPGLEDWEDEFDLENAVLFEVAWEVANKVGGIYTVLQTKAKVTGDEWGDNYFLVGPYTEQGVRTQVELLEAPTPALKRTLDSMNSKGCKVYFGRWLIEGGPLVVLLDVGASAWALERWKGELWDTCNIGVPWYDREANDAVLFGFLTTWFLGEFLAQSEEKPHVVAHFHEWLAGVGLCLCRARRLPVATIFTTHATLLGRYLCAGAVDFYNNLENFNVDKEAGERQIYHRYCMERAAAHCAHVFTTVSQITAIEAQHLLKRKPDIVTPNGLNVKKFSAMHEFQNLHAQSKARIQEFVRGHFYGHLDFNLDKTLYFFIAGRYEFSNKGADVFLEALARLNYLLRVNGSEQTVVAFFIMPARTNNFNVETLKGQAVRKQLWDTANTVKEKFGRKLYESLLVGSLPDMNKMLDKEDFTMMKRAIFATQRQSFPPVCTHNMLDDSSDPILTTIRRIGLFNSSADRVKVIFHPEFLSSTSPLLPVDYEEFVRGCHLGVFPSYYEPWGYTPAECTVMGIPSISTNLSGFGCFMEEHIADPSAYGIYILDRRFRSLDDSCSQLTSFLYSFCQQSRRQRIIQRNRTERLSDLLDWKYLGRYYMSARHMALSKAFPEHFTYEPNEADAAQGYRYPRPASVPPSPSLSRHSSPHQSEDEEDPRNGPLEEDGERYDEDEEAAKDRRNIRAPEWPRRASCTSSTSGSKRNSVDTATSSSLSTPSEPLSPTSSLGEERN
UniProt P00390: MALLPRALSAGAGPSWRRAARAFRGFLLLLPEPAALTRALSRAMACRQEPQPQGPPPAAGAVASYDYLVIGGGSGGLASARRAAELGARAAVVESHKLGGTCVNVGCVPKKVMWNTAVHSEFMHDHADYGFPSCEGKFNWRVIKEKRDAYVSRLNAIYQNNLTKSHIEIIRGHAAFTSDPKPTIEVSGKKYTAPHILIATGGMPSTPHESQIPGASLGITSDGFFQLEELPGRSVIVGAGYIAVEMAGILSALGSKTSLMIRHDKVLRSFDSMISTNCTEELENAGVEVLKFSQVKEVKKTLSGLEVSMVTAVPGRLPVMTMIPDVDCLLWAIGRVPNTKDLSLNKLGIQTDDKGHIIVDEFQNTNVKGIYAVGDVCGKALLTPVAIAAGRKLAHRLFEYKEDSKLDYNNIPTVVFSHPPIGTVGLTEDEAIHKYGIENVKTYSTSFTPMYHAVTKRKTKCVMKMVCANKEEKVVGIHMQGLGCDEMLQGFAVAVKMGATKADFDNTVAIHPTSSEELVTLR
UniProt P49590: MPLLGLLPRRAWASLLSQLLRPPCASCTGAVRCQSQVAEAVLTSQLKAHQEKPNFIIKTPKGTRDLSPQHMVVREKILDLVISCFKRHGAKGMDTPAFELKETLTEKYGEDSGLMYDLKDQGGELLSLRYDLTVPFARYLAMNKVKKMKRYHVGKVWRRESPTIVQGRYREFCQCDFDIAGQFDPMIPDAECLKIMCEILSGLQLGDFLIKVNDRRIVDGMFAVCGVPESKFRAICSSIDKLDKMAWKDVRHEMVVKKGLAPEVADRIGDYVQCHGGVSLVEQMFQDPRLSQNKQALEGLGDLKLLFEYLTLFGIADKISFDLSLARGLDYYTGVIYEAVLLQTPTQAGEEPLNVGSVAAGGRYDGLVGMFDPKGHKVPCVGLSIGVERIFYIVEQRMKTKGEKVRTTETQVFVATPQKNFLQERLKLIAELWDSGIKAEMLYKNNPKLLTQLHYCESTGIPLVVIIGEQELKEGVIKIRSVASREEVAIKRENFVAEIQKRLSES

Key:
Experiment in all cases: log2 fold change, soluble protein after heating vs DMSO (PISA); higher = thermal stabilisation; K562 lysate, 10 uM; active = over 0.2 and 3.5 SD of the protein, either way, in both replicates (recomputed)
[1] = compound: NCC(=O)Nc1ccc(-n2nc(C(F)(F)F)cc2-c2ccc3c(ccc4ccccc43)c2)cc1
Outline: (§1)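 A 30 min treatment with 10 μM compound was applied to crude K562 extract at 1 mg/mL protein in PBS pH 7.4 with 1 mM MgCl2. Heating for 3 min spanned 48°C-58°C, after which aliquots were pooled, adjusted to 0.5% NP-40 at 4°C and spun at 21,000xg for 90 min. TMTpro 16plex LC-MS/MS of the supernatant, with channel sums equalised, gave values recorded as log-two fold change in thermal stability against solvent controls, from duplicates.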

[2] = compound: O=C(CCCCCCC(=O)Nc1ccccc1)NO [vorinostat]
Outline: as §1

[3] = compound: O=C(O)c1ccc2c(c1)nc(Nc1cccc(Cl)c1)c1ccncc12 [silmitasertib]
Outline: as §1

[4] = compound: O=C1NC(=O)C(c2cnc3ccccn23)=C1c1cn2c3c(cc(F)cc13)CN(C(=O)N1CCCCC1)CC2
Outline: as §1

[5] = compound: c1cn2cc(-c3ccc4cn[nH]c4c3)nc(Nc3ccc(N4CCOCC4)cc3)c2n1 [entospletinib]
Outline: as §1

In the case of GRPEL2 (UniProt Q8TAA5), the log2 fold change [1] is reported as inactive: 0.091, the log2 fold change [2] is reported as inactive: -0.182 and the log2 fold change [3] is reported as inactive: -0.082. The log2 fold change [4] was inactive: -0.04 and the log2 fold change [5] was inactive: 0.034.

HDHD5 (UniProt Q9BXW7) was tested, and the log2 fold change [1] was inactive: 0.018, the log2 fold change [2] was active: -0.249 and the log2 fold change [3] was inactive: 0.043. The log2 fold change [4] was inactive: -0.002 and the log2 fold change [5] was inactive: -0.059.

GTF2A1 (UniProt P52655) was tested, and the log2 fold change [1] was inactive: -0.029, the log2 fold change [2] was inactive: 0.094 and the log2 fold change [3] was inactive: -0.043. The log2 fold change [4] was inactive: 0.052 and the log2 fold change [5] was inactive: 0.039.

GSPT2 (UniProt Q8IYD1) was tested, and the log2 fold change [1] was inactive: -0.026, the log2 fold change [2] was inactive: -0.006 and the log2 fold change [3] was inactive: -0.018. For the same target, the log2 fold change [4] was inactive: 0.054 and the log2 fold change [5] was inactive: -0.031.

GREB1 (UniProt Q4ZG55) was tested, and the log2 fold change [1] was inactive: 0.238, the log2 fold change [2] was inactive: 0.137 and the log2 fold change [3] was inactive: -0.069. The log2 fold change [4] was inactive: 0.454 and the log2 fold change [5] was inactive: 0.001.

With HBG1 (UniProt P69891) the log2 fold change [1] was inactive: -0.078, the log2 fold change [2] was inactive: 0.1 and the log2 fold change [3] was inactive: -0.043. The log2 fold change [4] was inactive: 0.04 and the log2 fold change [5] was inactive: -0.04.

For GYS1 (UniProt P13807), the log2 fold change [1] was inactive: -0.02, the log2 fold change [2] was inactive: 0.016 and the log2 fold change [3] was inactive: 0.051. The log2 fold change [4] was inactive: -0.001 and the log2 fold change [5] was inactive: -0.033.

GSR (UniProt P00390) was tested, and the log2 fold change [1] was inactive: -0.008, the log2 fold change [2] was inactive: 0.1 and the log2 fold change [3] was inactive: 0.005. For the same target, the log2 fold change [4] was inactive: -0.005 and the log2 fold change [5] was inactive: 0.

With HARS2 (UniProt P49590) the log2 fold change [1] was inactive: 0.05, the log2 fold change [2] was inactive: 0.009 and the log2 fold change [3] was inactive: 0.147. The log2 fold change [4] was inactive: 0.08 and the log2 fold change [5] was inactive: -0.104.
